Laboratory results: US20170355953A1 (OSAKA UNIVERSITY, published 2017)
No constants are given. Whether binding was seen depends on the method and setting. Binding seen in cells or lysates may run through a third protein. Some binding calls cover weakened binding; strength is not graded here. Tags and fused reporters may be left off the sequences shown.

Sequences of proteins named here, by UniProt entry; tags and fusion partners are left off. A change or cut given only in a name is not applied to a line headed by its entry. A line that says so, or that is headed by a name, gives the form on record, which may keep a tag or linker.
N-terminally PA-tagged human Wnt3a (P56704, form named): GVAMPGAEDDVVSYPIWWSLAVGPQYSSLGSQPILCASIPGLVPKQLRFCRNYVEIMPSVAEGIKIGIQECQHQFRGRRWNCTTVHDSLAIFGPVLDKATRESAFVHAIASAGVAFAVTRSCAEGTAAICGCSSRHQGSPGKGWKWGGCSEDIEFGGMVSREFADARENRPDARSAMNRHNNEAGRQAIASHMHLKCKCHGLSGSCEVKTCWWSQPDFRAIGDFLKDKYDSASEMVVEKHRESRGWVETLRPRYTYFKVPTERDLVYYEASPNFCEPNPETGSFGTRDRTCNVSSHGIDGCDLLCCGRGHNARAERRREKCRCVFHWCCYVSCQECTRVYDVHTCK
N-terminally PA-tagged human Wnt10b (O00744, form named): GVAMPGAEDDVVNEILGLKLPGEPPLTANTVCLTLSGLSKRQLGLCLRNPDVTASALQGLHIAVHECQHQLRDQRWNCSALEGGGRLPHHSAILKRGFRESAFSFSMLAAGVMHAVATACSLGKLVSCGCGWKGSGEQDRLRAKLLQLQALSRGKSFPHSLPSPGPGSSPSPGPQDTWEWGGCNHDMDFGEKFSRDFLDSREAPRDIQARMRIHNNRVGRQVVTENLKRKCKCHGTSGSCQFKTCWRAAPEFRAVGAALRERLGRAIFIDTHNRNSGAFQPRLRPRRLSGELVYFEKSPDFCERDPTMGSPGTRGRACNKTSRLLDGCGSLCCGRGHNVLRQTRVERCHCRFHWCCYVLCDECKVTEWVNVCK
UniProt P27467: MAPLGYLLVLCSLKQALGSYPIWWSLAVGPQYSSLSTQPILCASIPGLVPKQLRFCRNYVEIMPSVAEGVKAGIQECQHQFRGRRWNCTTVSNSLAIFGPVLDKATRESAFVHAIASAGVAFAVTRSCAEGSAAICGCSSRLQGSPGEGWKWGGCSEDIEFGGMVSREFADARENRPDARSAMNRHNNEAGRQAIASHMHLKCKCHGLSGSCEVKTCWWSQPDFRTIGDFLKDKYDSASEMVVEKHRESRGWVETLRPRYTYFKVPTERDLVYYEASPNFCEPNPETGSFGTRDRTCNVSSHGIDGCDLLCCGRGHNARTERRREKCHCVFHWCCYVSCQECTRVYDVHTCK

T1: N-terminally PA-tagged human Wnt7b (human) (UniProt P56706)
T1 sequence: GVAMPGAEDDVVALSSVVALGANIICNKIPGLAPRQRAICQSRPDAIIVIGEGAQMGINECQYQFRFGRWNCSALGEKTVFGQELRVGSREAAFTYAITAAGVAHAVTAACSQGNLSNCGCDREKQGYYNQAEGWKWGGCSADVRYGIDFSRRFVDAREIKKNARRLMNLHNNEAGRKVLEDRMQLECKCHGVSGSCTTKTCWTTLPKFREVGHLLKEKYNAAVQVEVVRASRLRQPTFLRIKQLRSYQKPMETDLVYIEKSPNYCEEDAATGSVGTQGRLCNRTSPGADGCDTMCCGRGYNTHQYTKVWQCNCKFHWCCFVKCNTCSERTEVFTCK

T2: N-terminally PA-tagged human Wnt8a (human) (UniProt Q9H1J5)
T2 sequence: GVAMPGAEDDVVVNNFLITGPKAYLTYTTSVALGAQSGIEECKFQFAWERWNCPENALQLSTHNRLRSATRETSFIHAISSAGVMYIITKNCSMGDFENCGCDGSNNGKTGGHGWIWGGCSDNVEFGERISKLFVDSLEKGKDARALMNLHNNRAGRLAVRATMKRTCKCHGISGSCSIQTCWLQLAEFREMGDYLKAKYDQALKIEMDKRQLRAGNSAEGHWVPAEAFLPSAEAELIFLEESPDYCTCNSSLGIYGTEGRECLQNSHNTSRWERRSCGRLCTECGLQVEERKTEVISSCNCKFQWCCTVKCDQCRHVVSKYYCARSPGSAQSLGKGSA

T3: N-terminally PA-tagged human Wnt7a (human) (UniProt O00755)
T3 sequence: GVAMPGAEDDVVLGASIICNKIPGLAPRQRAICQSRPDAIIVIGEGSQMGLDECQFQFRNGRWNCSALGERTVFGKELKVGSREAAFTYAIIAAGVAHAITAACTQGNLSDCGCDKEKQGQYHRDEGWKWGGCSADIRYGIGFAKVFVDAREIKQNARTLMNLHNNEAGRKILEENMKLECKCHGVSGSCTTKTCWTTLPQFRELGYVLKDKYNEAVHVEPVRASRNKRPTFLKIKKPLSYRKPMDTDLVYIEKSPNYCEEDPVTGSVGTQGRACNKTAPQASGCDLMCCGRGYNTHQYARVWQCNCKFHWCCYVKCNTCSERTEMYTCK

T4: N-terminally PA-tagged human Wnt9b (human) (UniProt O14905)
T4 sequence: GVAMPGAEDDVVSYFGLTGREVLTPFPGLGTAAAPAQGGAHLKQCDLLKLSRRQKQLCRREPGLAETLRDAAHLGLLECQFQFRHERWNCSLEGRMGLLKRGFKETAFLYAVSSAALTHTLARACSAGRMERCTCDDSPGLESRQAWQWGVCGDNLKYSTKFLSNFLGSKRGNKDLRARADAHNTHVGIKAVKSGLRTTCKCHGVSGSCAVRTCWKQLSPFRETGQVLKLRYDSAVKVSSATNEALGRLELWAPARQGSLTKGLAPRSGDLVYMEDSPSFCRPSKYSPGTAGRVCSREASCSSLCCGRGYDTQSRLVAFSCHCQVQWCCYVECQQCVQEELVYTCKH

T5: N-terminally PA-tagged human Wnt5a (human) (UniProt P41221)
T5 sequence: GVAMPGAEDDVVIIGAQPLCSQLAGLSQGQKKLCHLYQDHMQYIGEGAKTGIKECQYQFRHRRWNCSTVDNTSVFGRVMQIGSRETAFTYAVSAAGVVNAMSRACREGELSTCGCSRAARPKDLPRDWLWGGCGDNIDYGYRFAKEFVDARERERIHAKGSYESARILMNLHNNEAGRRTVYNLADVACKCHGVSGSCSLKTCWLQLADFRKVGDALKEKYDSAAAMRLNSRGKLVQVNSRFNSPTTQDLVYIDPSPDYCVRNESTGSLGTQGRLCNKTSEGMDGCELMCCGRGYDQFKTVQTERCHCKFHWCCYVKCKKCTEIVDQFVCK

T6: N-terminally PA-tagged human Wnt1 (human) (UniProt P04628)
T6 sequence: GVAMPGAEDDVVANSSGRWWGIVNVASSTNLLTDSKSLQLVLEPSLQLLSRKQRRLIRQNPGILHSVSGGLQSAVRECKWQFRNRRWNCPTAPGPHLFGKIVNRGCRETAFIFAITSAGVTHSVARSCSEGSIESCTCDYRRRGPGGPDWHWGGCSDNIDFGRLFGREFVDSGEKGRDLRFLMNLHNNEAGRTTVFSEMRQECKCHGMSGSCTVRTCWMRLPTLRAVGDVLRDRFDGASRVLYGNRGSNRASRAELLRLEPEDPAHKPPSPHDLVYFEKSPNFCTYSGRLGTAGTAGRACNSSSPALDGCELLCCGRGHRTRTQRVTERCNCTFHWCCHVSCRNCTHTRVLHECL

T7: N-terminally PA-tagged human Wnt2b (human) (UniProt Q93097)
T7 sequence: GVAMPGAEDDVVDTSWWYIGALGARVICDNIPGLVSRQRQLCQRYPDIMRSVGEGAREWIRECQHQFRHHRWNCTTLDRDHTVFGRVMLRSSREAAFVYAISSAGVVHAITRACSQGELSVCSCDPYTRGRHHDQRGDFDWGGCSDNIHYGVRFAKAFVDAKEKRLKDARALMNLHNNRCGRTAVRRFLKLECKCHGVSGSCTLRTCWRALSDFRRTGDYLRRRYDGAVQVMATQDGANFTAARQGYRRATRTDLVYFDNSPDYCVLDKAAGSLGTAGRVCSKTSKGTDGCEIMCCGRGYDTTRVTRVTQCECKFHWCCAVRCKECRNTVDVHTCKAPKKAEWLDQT

T8: N-terminally PA-tagged human Wnt9a (human) (UniProt O14904)
T8 sequence: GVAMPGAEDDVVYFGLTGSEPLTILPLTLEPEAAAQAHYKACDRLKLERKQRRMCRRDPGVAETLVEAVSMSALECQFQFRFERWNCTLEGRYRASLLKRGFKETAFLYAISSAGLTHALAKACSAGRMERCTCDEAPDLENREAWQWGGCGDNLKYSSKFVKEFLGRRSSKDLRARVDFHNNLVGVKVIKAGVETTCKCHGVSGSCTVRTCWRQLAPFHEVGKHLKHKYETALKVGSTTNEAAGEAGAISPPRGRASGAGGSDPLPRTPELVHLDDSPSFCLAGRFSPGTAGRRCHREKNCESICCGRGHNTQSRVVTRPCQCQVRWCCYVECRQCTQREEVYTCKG


Experiments:
[1] = molecular target: T1, N-terminally PA-tagged human Wnt7b (human); assay: co-immunoprecipitation on P20.1-sepharose (TARGET tag on afamin), western blotting with biotin-modified NZ-1
[2] = molecular target: T2, N-terminally PA-tagged human Wnt8a (human); assay: as above
[3] = molecular target: N-terminally PA-tagged human Wnt3a (human) (UniProt P56704); assay: as above
[4] = molecular target: T3, N-terminally PA-tagged human Wnt7a (human); assay: as above
[5] = molecular target: T4, N-terminally PA-tagged human Wnt9b (human); assay: as above
[6] = molecular target: T5, N-terminally PA-tagged human Wnt5a (human); assay: as above
[7] = molecular target: N-terminally PA-tagged human Wnt10b (human) (UniProt O00744); assay: as above
[8] = molecular target: T6, N-terminally PA-tagged human Wnt1 (human); assay: as above
[9] = molecular target: T7, N-terminally PA-tagged human Wnt2b (human); assay: as above
[10] = molecular target: T8, N-terminally PA-tagged human Wnt9a (human); assay: as above
[11] = molecular target: mouse Wnt3a fused with an affinity tag (W-Wnt3a) (mouse) (UniProt P27467); assay: co-purification on P20.1 antibody-sepharose from serum-free medium supplemented with recombinant human afamin, SDS-PAGE

| binding [1] | binding [2] | binding [3] | binding [4] | binding [5] | binding [6] | binding [7] | binding [8] | binding [9] | binding [10] | binding [11] | Binder |
| --- | --- | --- | --- | --- | --- | --- | --- | --- | --- | --- | --- |
| binds | binds | binds | binds | binds | binds | binds | binds | binds | binds | – | N-terminally TARGET-tagged human afamin (protein, UniProt P43652 22-599, looked up, not shown: small tags and cut ends) LPTQPRDIENFNSTQKFIEDNIEYITIIAFAQYVQEATFEEMEKLVKDMVEYKDRCMADKTLPECSKLPNNVLQEKICAMEGLPQKHNFSHCCSKVDAQRRLCFFYNKKSDVGFLPPFPTLDPEEKCQAYESNRESLLNHFLYEVARRNPFVFAPTLLTVAVHFEEVAKSCCEEQNKVNCLQTRAIPVTQYLKAFSSYQKHVCGALLKFGTKVVHFIYIAILSQKFPKIEFKELISLVEDVSSNYDGCCEGDVVQCIRDTSKVMNHICSKQDSISSKIKECCEKKIPERGQCIINSNKDDRPKDLSLREGKFTDSENVCQERDADPDTFFAKFTFEYSRRHPDLSIPELLRIVQIYKDLLRNCCNTENPPGCYRYAEDKFNETTEKSLKMVQQECKHFQNLGKDGLKYHYLIRLTKIAPQLSTEELVSLGEKMVTAFTTCCTLSEEFACVDNLADLVFGELCGVNENRTINPAVDHCCKTNFAFRRPCFESLKADKTYVPPPFSQDLFTFHADMCQSQNEELQRKTDRFLVNLVKLKHELTDEELQSLFTNFANVVDKCCKAESPEVCFNEESPKIGN |
| – | – | – | – | – | – | – | – | – | – | binds | recombinant human afamin fused with a PA tag at the C-terminus (hAFM-PA) (protein) LPTQPRDIENFNSTQKFIEDNIEYITIIAFAQYVQEATFEEMEKLVKDMVEYKDRCMADKTLPECSKLPNNVLQEKICAMEGLPQKHNFSHCCSKVDAQRRLCFFYNKKSDVGFLPPFPTLDPEEKCQAYESNRESLLNHFLYEVARRNPFVFAPTLLTVAVHFEEVAKSCCEEQNKVNCLQTRAIPVTQYLKAFSSYQKHVCGALLKFGTKVVHFIYIAILSQKFPKIEFKELISLVEDVSSNYDGCCEGDVVQCIRDTSKVMNHICSKQDSISSKIKECCEKKIPERGQCIINSNKDDRPKDLSLREGKFTDSENVCQERDADPDTFFAKFTFEYSRRHPDLSIPELLRIVQIYKDLLRNCCNTENPPGCYRYAEDKFNETTEKSLKMVQQECKHFQNLGKDGLKYHYLIRLTKIAPQLSTEELVSLGEKMVTAFTTCCTLSEEFACVDNLADLVFGELCGVNENRTINPAVDHCCKTNFAFRRPCFESLKADKTYVPPPFSQDLFTFHADMCQSQNEELQRKTDRFLVNLVKLKHELTDEELQSLFTNFANVVDKCCKAESPEVCFNEESPKIGNGVAMPGAEDDVV |
